# Screening data

From PubChem BioAssay record AID1159506 (NCATS, 2015).

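Luminescence from an EWS-FLI1 target-promoter (NR0B1) reporter, set against a CMV-promoter reporter, two days after silencing single genes in TC32 Ewing sarcoma cells.
Each siRNA was applied at 20 nM.
A z-score of the log NR0B1-over-CMV signal, less the median of siRNAs with the same seed; more negative means a stronger specific loss of the NR0B1 reporter.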

This is part of the screen; most of the strongest results are not listed here.
Sequences are the guide (antisense) strand, without overhang.

* UAGUCUAUCAGUUGCCUCC against DUSP14 | seed-corrected z-score -0.04839
* UUCCUCUUCACGGGCACAG against MAGEB4 | seed-corrected z-score -0.2015
* UGAUUCACCAGUGAGCGAG against ATP1A1 | seed-corrected z-score 0.3481
* AAUCGGUCAAUCAUGUUGU against CLASRP | seed-corrected z-score 0.004163
* AUACUUAAAGAGGUGUGGG against DNTTIP1 | seed-corrected z-score -0.05702
* AUAUCGUAAAAUUAGUCCC against SLC9A9 | seed-corrected z-score -0.1548
* AUCAUUGUCAGUAACGUAC against RCBTB1 | seed-corrected z-score 0.1831
* AUAGCAUCAUGGUAUAACG against BCL9 | seed-corrected z-score -0.2108
* UUGUCUCCCAGGUGAUCCC against GRWD1 | seed-corrected z-score -1.631
* AAGAUGGACAGGUAAUUCC against CAPN1 | seed-corrected z-score -1.416
* UCUUUAUUUACCACUUCCC against MCM7 | seed-corrected z-score -0.5133
* UGACUUCACGGUGACCAGC against RASL12 | seed-corrected z-score -0.8874
* UGCUGAAUGAGAGAAGUCC against LOC642669 | seed-corrected z-score 0.7486
* UUCUCUGCAUAAUCUGUUC against TMEFF2 | seed-corrected z-score -0.07139
* UUUGUAGCAGCGUGGAACC against CLEC9A | seed-corrected z-score -0.3656
* AGCACGUUUAUUAAAGUGG against TIMM10 | seed-corrected z-score -0.343
* AUACUAACAGGUUGUUUCC against KLHDC10 | seed-corrected z-score 0.3014
* ACCUUGAUAAUAGUAAGUC against TMPRSS11B | seed-corrected z-score -0.6017
* UAGGUUGCUAGGAAAGGAC against DPH7 | seed-corrected z-score -0.7683
* UACGAAAGCAUCAAAAUCC against IL18RAP | seed-corrected z-score -0.3351
* UAAGUUUAAGCUACAGGCU against KCTD12 | seed-corrected z-score 0.2272
* AAUUUUCCACGAGUUGCUG against SNX29P1 | seed-corrected z-score 1.325
* AAUGGUUAUGUGAUCUAGG against SLCO1C1 | seed-corrected z-score -0.6159
* UACCAUAAUAAUGAAACGG against KLRK1 | seed-corrected z-score 0.1895
* UUUAUCUAGAUUGAGGUAG against C5orf30 | seed-corrected z-score 0.6588
* UUCAUUAAAACUCGUAUAG against HTR1E | seed-corrected z-score 0.4413
* AGUACGACAAUAGCAAUCU against BANF1 | seed-corrected z-score 1.188
* UACUCGUCAAACUCUACUC against RBP2 | seed-corrected z-score 0.6009
* UCCUAAAUAACCUUGUUUG against PDE4D | seed-corrected z-score 0.9828
* UAUUCAUCUACUGGGCUGC against MAGEC1 | seed-corrected z-score -0.3834
* UAUCAGAAUAGAAACACGA against HOXA6 | seed-corrected z-score 0.2396
* AAUGUAGUCAUUUGGAUCG against PDZRN3 | seed-corrected z-score 0.04686
* UAAAGAAAUGGAGACGUGG against TUBB | seed-corrected z-score -0.5935
* UCAGCUUAUAAAAUUCCAU against TSPO | seed-corrected z-score -0.5061
* AAAGUCACCAGGUUCGGGU against ZBED3 | seed-corrected z-score -0.4533
* AAUCUUUCCGCAAAGGUUC against LOC729609 | seed-corrected z-score 1.081
* UCUGCAAUCUCGAUGAUAG against ARHGAP30 | seed-corrected z-score -0.05692

The last 3 entries again:

Sequence,target gene,seed-corrected z-score
AAAGUCACCAGGUUCGGGU,ZBED3,-0.4533
AAUCUUUCCGCAAAGGUUC,LOC729609,1.081
UCUGCAAUCUCGAUGAUAG,ARHGAP30,-0.05692